Patent US10925855B2, “Compositions comprising water dispersible nanoparticles of a retinoid compound” (GALDERMA RESEARCH & DEVELOPMENT, priority 2015, dated 2021)
This continues a long series; more values of the same kind are listed elsewhere.

Assay: Stabilizer screening (colloid stability after precipitation)
Assay type: physicochemical
Conditions: Compound A 1.0 mg, 1 mL EtOH
Procedure: If the colloid solution was stable over 2 hours (no aggregation, sedimentation, crystal forming), and no aggregation occurred, the sample was lyophilized. • If precipitation occurred, however the colloid solution was not stable over the whole solid formulation procedure, other stabilizers were tested. Results

Observation (2 mg PEOX50, 7 mL 0.05 mg/mL BAC solution): Aggregated immediately
Observation (2 mg PEOX50, 7 mL 0.05 mg/mL DSS solution): Aggregated immediately
Observation (2 mg PEOX50, 7 mL 0.05 mg/mL Mannitol solution): Aggregated immediately
Observation (2 mg PEOX50, 7 mL 0.05 mg/mL NaOAc solution): Aggregated immediately
Observation (2 mg PEOX50, 7 mL 0.05 mg/mL SDS solution): Aggregated immediately
Observation (2 mg PEOX50, 7 mL 0.05 mg/mL citric acid solution): Aggregated immediately
Observation (2 mg PEOX50, 7 mL 0.5 mg/mL BAC solution): Aggregated immediately
Observation (2 mg PEOX50, 7 mL 0.5 mg/mL Mannitol solution): Aggregated immediately
Observation (2 mg PVP10, 7 mL 0.5 mg/mL citric acid solution): Aggregated immediately
SMILES: CC(C)(C)c1cc(-c2cc(-c3ccc(C(=O)O)cc3)ccc2OCCO)ccc1N1CCCC1 [Compound A, 3″-tert-butyl-4′-(2-hydroxyethoxy)-4″-pyrrolidin-1-yl[1,1′;3′,1″]-terphenyl-4-carboxylic acid]
